Test results as given in US20230095558A1, “IMMUNE CHECKPOINT TIM3-TARGETING BINDING PEPTIDE AND APPLICATION THEREOF” (Sparx Biotech (Jiangsu) Co., Ltd., priority 2020, published 2023).
Results are given in words; binding and its absence hold for the method and conditions named. Some entries that bind do so weakly or less than the wild type.

T1: recombinant human TIM3 expressed on 293T-TIM3 cells (human) (UniProt Q8TDQ0)
T1 sequence (looked up): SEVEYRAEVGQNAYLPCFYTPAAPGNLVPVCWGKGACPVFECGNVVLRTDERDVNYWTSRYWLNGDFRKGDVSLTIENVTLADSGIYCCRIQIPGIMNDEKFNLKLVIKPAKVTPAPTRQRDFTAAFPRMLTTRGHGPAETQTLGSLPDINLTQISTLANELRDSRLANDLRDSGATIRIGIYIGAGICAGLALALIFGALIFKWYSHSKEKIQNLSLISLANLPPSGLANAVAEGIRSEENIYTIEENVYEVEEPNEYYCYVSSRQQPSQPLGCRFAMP


Key:
[1] = biological target: T1, recombinant human TIM3 expressed on 293T-TIM3 cells (human); assay: cell ELISA with phage, ratio of OD490 on 293T-TIM3 cells to OD490 on 293T cells
[2] = biological target: T1, recombinant human TIM3 expressed on 293T-TIM3 cells (human); assay: flow cytometry with P26-FITC on 293T-TIM3 cells, 293T cells as negative control

Binder	binding [1]	binding [2]
GSWNTFRAQPTI [N40]	binds	–
SHDTRSPFTWGR [N24]	binds	–
ALWPSSSMSSTI [N51]	binds	–
LTPHKHHKHLHA [N17]	binds	–
GLIPLTTMHIGK [N36]	binds	–
GLIPLTTMHIGK [P26-12-peptide (targeting TIM3)]	–	binds
SFAGVHQFRPAP [N32]	binds	–
ADFRVMADMSMY [N67]	binds	–

Results, then the binder that gave them:

binding [1]	binding [2]	Binder
binds	–	HDAFPRPHLFRN [N129]
binds	–	TFLNSVPTYSYW [N71]
binds	–	SHTTTEHAKDKI [N131]
